Publication PMC8402394
No constants are given. Whether binding was seen depends on the method and setting.

Target: RvPLA2 (acidic phospholipase A2 Daboia siamensis) (Daboia siamensis) (UniProt P31100)
Test: SDS-PAGE under non-reducing and reducing conditions; both purified

**Q.** “RvPLA2 (acidic phospholipase A2 Daboia siamensis) (from UniProt P31100 17-138) (enzyme)” was tested. Which binding did it give?
**A.** The binding was “no binding”.
